From PubChem BioAssay AID1347423 (Functional Genomics Laboratory (NCATS/FGL), 2020)
In all, about 52,000 sequences went through this assay and about 210 (0.4%) were called active.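 The calls were made as follows: active = gene whose silencing raises cell survival under the drug, median off-target-corrected z-score across its silencing RNAs 2 or more; inactive = the rest.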 Some of the results follow.

experiment: Resistance to Poly (ADP-Ribose) Polymerase inhibitor: Gene Identification via Genome-wide siRNA Screen; conditions: mouse BRCA2 R2336H ES cells, olaparib, CellTiter-Glo viability; hits give high values
Summary of the method: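 Mouse BRCA2 R2336H ES cells were reverse-transfected with siRNA (20 nM final), treated at 48 h with 500 nM olaparib, and read by CellTiter-Glo after 72 h. Scores: MAD-based z per siRNA, median per gene, seed off-target correction.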

For GGCAUGACUUCCACAUGAATT against Pdcd1, which z-score is on record?
The z-score was inactive: 0.701.

For GAACCAUCCGAGUAUGGCUTT against Wdfy1, which z-score is on record?
The z-score was inactive: -1.25.

With GGAAGUCUAGGUAAAAAAGTT against Samsn1 as the sequence, how does the z-score read?
The z-score was inactive: 0.246.

With GGUCAUUGAAAACUGUGCGTT against Sardh as the sequence, how does the z-score read?
Its z-score is inactive: -0.00863.

With GGUGAUUUGAACCUUUUGATT against Rab3d as the sequence, how does the z-score read?
Its z-score is inactive: -0.344.

For GGUUAUAUGCAGAGGAACUTT against Arid1a, which z-score is on record?
The z-score was inactive: -1.09.

With GGCUUUAAAGGGAAUGCCCTT against Ube1c as the sequence, how does the z-score read?
Its z-score is inactive: 0.61.

For GGCACCUUGGAGUUACAUATT against Pcdha10, which z-score is on record?
Its z-score is inactive: -1.21.

Which z-score does the source give for CGAGUCAAUCAACUUGUCUTT against Olfr54 here?
Its z-score is inactive: -0.239.

For GGUGACUAGUUCCAGAAGATT against Ptprm, which z-score is on record?
Its z-score is inactive: 0.382.

For GCAUCUGGGACAUUUAGAGTT against Cd200r3, which z-score is on record?
The z-score was inactive: -0.809.

With CGGGUAACAGAAAUACUGUTT against Trib1 as the sequence, how does the z-score read?
The z-score was inactive: 1.05.

Which z-score does the source give for GGCUGUAGCCAAAUAUCUUTT against Tloc1 here?
Its z-score is inactive: 0.579.

Which z-score does the source give for “GGAGAGGAUGCAUGUAAAATT against 1110004B15Rik” here?
The z-score was inactive: -1.95.

For GGCAGUCAAUGAAGUUUUUTT against Fbxo38, which z-score is on record?
Its z-score is inactive: -0.183.

Which z-score does the source give for GGACUGUGGCACAGAGAAATT against Hgfac here?
The z-score was inactive: 0.154.

Which z-score does the source give for GCUUUUCUAGAAUACAGCCTT against Tdpoz4 here?
Its z-score is inactive: 0.43.

With UACUUCUGACUGUCAUUGGTT against Olfr310 as the sequence, how does the z-score read?
The z-score was inactive: 0.947.

For “GGAUAAUGCUUUAUGGGAATT against 1700112P19Rik”, which z-score is on record?
Its z-score is inactive: 0.693.

Which z-score does the source give for CGUAAAACGAGUGCUUUUATT against Tcfcp2l3 here?
Its z-score is inactive: 1.21.

Which z-score does the source give for GGUCACGAUUAUCUUCAAATT against Rgmb here?
The z-score was inactive: -0.29.

Which z-score does the source give for GGAACACUUUAAGACCAAATT against Fmnl1 here?
Its z-score is inactive: 1.6.

Which z-score does the source give for GGCCCUUCAUGAAGAGCAATT against Carf here?
Its z-score is inactive: 0.265.

For GGACAAUUAUGAGAUGCACTT against Surf5, which z-score is on record?
Its z-score is inactive: -0.381.

For GGAAGACAACAACCUAGAATT against Rpn1, which z-score is on record?
Its z-score is inactive: 0.231.

With GCAGGACAUGUUGUUCCCUTT against Aarsl as the sequence, how does the z-score read?
The z-score was inactive: -1.57.

With GGGAAGGCACACCAUAGAATT against Zfp369 as the sequence, how does the z-score read?
Its z-score is inactive: 2.

For GGAGGUAACAACAACAGAATT against BC028528, which z-score is on record?
The z-score was inactive: 0.67.

For “CGGCAGAUGCAUUCAGGAUTT against 5830436D01Rik”, which z-score is on record?
The z-score was inactive: 1.82.

With GGGACAGUAGAAGAUGUAGTT against Got2 as the sequence, how does the z-score read?
The z-score was inactive: -2.53.

For “GCAUUAAACUGAUUAUCGATT against 4631426J05Rik”, which z-score is on record?
The z-score was inactive: 0.856.

For CGGGAAGAAGUUCAUAAAUTT against Topbp1, which z-score is on record?
The z-score was inactive: -1.43.

For GCAGGUUUAACAACUUACUTT against Dmgdh, which z-score is on record?
Its z-score is inactive: -0.352.

Which z-score does the source give for GGGAGAUGAAGAGGAGAAGTT against Smad9 here?
The z-score was inactive: -2.34.

For “GCCACAGAGCUAGACUGUCTT against 2810046M22Rik”, which z-score is on record?
Its z-score is inactive: -0.347.

With GGAACACAAACUGAAAGUCTT against Elac2 as the sequence, how does the z-score read?
The z-score was inactive: 0.85.

With “CCUCGACAUCUAAUGAAGATT against 4933405O20Rik” as the sequence, how does the z-score read?
Its z-score is inactive: 0.731.

Which z-score does the source give for CGCAUAUUGAGAUAUCUUGTT against Cbln3 here?
The z-score was inactive: 0.834.

For GGAAUUAGUCUCCAAAUAUTT against Eat2, which z-score is on record?
Its z-score is inactive: -2.33.

For GGUUGAAGAUGAAAGAAGATT against Sin3a, which z-score is on record?
Its z-score is inactive: -3.23.

With GCAGCAAGUUUUGUCAGGGTT against Tmprss13 as the sequence, how does the z-score read?
The z-score was inactive: -0.689.

Which z-score does the source give for “GGGUAAUGGGCCAGUAUCATT against 1700025K23Rik” here?
Its z-score is inactive: -2.14.

Which z-score does the source give for GCAAAUCGAAAGCGGAGGUTT against Fem1c here?
Its z-score is inactive: 0.315.

Which z-score does the source give for GCAAACUGCUCUGUGGUAUTT against Olfr1310 here?
Its z-score is inactive: -0.171.

For GGAUUUGACAGGUUUGGAATT against MGC79224, which z-score is on record?
Its z-score is inactive: 0.486.

For GGGUAUGUGCAAAUAUUCATT against Anln, which z-score is on record?
The z-score was inactive: 1.29.

Which z-score does the source give for “CCUAUUUGGCCAUUAUCCATT against 2810423G08Rik” here?
Its z-score is inactive: -0.201.

Which z-score does the source give for GGACAGGUUCGAGUCAACATT against Agc1 here?
The z-score was inactive: 2.89.

Which z-score does the source give for GCGGCUCUUACGAGGUUUATT against Upk3a here?
Its z-score is inactive: -0.87.

With “GUACGUCAAGAGCCUGCGUTT against 5430432M24Rik” as the sequence, how does the z-score read?
Its z-score is inactive: 0.455.

Which z-score does the source give for GGAUGCACUAUCAUUAAGCTT against Tpx2 here?
The z-score was inactive: 0.672.

Which z-score does the source give for CCAAAUGAUUCUGUGGCUGTT against Cebpe here?
The z-score was inactive: -0.507.

With GGAUCUUCUUCUAUCAGUCTT against Ncf4 as the sequence, how does the z-score read?
Its z-score is inactive: -0.982.

For GGGAUAUCAGUAUUUCUCATT against AI413782, which z-score is on record?
The z-score was inactive: 0.216.

For GGCAACAUCCAAAAACUCUTT against Yme1l1, which z-score is on record?
Its z-score is inactive: -1.34.

With CCAGCAAAUGAGAGGUCUGTT against Olfr1024 as the sequence, how does the z-score read?
Its z-score is inactive: -1.39.

Which z-score does the source give for GGCCAUUCUGGAAACUCCATT against Foxp4 here?
Its z-score is inactive: -1.17.

Which z-score does the source give for GCAAGCCAACUGACCAUCATT against Nudt2 here?
Its z-score is inactive: -2.21.

For “CCACUUAACGAAGAAAUUATT against 8030462N17Rik”, which z-score is on record?
Its z-score is inactive: 0.0347.

Which z-score does the source give for “GGUAGGCUAAAUAAAGAAGTT against 1500009M05Rik” here?
Its z-score is inactive: 0.659.

Which z-score does the source give for GCUUGGCAGGUGAAUGUCATT against Oprm1 here?
The z-score was inactive: 0.182.

For GGGAUUUUGCUGAAACUCATT against Klhl12, which z-score is on record?
The z-score was inactive: -0.864.

With GGAAGAGGAGAGGAAGAAGTT against Dncic1 as the sequence, how does the z-score read?
Its z-score is inactive: 0.692.

For GGCAAAGGACUUCAUGGCUTT against B4galt4, which z-score is on record?
Its z-score is inactive: 1.72.

With GGGUUUUGCUACAUCAAUGTT against Pgm2l1 as the sequence, how does the z-score read?
The z-score was inactive: 0.337.

Which z-score does the source give for GGUUUAUCCUACAGCGAAGTT against Plpcd here?
The z-score was inactive: -0.15.

Which z-score does the source give for GCGGUGUGUUUCAAUAGUUTT against Clecsf10 here?
Its z-score is inactive: -0.536.
